# These are yes or no findings as the source states them, for the method shown. Binding seen in cells or lysates may run through a third protein. Some entries that bind do so weakly or less than the wild type.
# Biological target: T1, serum response factor (SRF) (mouse (endogenous in primary mouse dermal fibroblasts)) (UniProt Q9JM73)
# T1 sequence: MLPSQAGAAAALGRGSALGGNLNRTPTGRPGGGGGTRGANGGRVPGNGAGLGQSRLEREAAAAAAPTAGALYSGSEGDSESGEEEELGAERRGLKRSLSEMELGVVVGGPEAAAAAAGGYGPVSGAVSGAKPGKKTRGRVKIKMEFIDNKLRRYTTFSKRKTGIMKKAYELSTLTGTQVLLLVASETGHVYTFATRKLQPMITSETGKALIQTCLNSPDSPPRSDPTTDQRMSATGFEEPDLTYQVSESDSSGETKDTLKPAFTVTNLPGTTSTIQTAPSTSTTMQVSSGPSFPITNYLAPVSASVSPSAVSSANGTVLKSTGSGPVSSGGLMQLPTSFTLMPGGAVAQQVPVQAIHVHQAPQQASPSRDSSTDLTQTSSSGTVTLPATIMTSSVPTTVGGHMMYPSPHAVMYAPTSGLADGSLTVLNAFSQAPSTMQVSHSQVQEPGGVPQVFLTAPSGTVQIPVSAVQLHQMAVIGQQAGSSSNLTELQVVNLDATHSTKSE
# Test: co-IP
binder,measurement,value
"Myocardin-related transcription factor A (MRTF-A) (protein, UniProt Q8K4J6 1-964) MTLLEPEMLMMAVQSVLQLKLQQRRTREELVSQGIMPPLKSPAAFHEQRRSLERARTEDYLKRKIRSRPERAELVRMHILEETSAEPSLQAKQLKLKRARLADDLNEKIAQRPGPMELVEKNILPVESSLKEAIIVGQVNYPKVADSSSFDEDSSDALSPEQPASHESQGSVPSPLESRVSDPLPSATSISPTQVLSQLPMAPDPGETLFLAEQPPLPPAPLLPPSLANGSIVPTAKPAPTLIKQSQPKSASEKSQRSKKAKELKPKVKKLKYHQYIPPDQKQDKGAPAMDSSYAKILQQQQLFLQLQILNQQQQQQQQQHYNYQAILPAPPKPSAETPGSSAPTPSRSLSTSSSPSSGTPGPSGLARQSSTALAAKPGALPANLDDMKVAELKQELKLRSLPVSGTKTELIERLRAYQDQVSPAPGAPKAPATTSVLSKAGEVVVAFPAALLSTGSALVTAGLAPAEMVVATVTSNGMVKFGSTGSTPPVSPTPSERSLLSTGDENSTPGDAFGEMVTSPLTQLTLQASPLQIVKEEGARAASCCLSPGARAELEGLDKDQMLQEKDKQIEELTRMLQQKQQLVELLRLQLEQQKRAQQPAPASSPVKRESGFSSCQLSCQPQGSAHAFGSGLVVPTTNHGDTQAPAPESPPVVVKQEAGPPEPDLAPSSQLLLGSQGTSFLKRVSPPTLVTDSTGTHLILTVTNKSADGPGLPAGSPQQPLSQPGSPAPGPPAQMDLEHPPQPPFATPTSLLKKEPPGYEETVTQQPKQQENGSSSQHMDDLFDILIQSGEISADFKEPPSLPGKEKSPPAAAAYGPPLTPQPSPLSELPQAAPPPGSPTLPGRLEDFLESSTGLPLLTSGHEGPEPLSLIDDLHSQMLSSSAILDHPPSPMDTSELHFAPEPSSGMGLDLAVGHLDSMDWLELSSGGPVLSLAPLSTAAPSLFSMDFLDGHDLQLHWDSCL",binding,binds

# From article doi:10.1101/676635
